These are yes or no findings as the source states them, for the method shown. Some binding calls cover weakened binding; strength is not graded here.

Amino acid sequences for entries named in this document (tags omitted). Residues count along the entry.
UniProt P51682: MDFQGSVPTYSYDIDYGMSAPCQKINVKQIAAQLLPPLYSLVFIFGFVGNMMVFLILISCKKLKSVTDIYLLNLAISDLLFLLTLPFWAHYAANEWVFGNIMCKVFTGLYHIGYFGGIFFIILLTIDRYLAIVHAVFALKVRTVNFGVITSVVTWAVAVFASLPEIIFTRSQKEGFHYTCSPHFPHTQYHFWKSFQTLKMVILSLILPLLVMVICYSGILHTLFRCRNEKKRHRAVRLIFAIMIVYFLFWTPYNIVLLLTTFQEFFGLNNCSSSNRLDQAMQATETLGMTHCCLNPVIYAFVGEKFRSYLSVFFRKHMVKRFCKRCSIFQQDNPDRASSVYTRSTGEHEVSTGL
UniProt P13501, residues 24-91: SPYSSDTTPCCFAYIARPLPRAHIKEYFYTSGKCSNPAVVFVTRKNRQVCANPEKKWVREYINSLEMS

The target of this assay is mouse CCR5 (mCCR5) cloned from B6 mice, transiently expressed on HeLa-MAGI cells (mouse) (UniProt P51682). As to the kind of experiment: displacement of 125I-labelled human RANTES from mCCR5-transfected HeLa-MAGI cells by 50 nM non-iodinated human RANTES.

“non-iodinated human RANTES (R & D Systems) (from UniProt P13501 24-91) (ligand)”: the binding result is recorded as “binds”.
